Test: DNP-enhanced 1H-13C CP-MAS solid-state NMR of proline samples doped with biradical polarizing agent
Settings: for εAbs (absolute enhancement, doped vs undoped sample) / εDNP (microwave on/off signal enhancement) / τDNP (DNP build-up time) / time-adjusted absolute enhancement, εAbs-time: at optimal biradical concentration; for εAbs (absolute enhancement, doped vs undoped sample) / εDNP (microwave on/off signal enhancement) / τDNP (DNP build-up time): 600 MHz 1H, 8 kHz MAS, ~100 K; for time-adjusted absolute enhancement, εAbs-time: calculated with equation 3; for εAbs / εDNP: discussion of optimal samples; for εDNP, greatest value of the concentration series: maximum over biradical concentrations 5-30 mM (ATT at 15 mM); for relative intensity in 10-minute 1H-13C CP experiments: recycle delay 1.26×τDNP, optimal concentrations, scaled with respect to AMUPOL=18.0

Row | Compound | factor by which εAbs is smaller than εDNP (depolarizing effect) | τDNP | εAbs (absolute enhancement, doped vs undoped sample) | εDNP (microwave on/off signal enhancement) | τDNP (DNP build-up time) | time-adjusted absolute enhancement, εAbs-time | opt. biradical conc. (determined from εAbs-time profiles, concentration by EPR) | εAbs | εDNP | εDNP, greatest value of the concentration series | εAbs-time, maximum of profile (as a function of biradical concentration (TST at 14 mM)) | relative intensity in 10-minute 1H-13C CP experiments | εAbs, largest value of the concentration series (maximum over biradical concentrations 5-30 mM (TTS at 6 mM)) | εAbs-time (optimal concentration)
1 | CC1(C)CC(N)(C(=O)NC2(C(=O)O)CC(C)(C)N([O])C(C)(C)C2)CC(C)(C)N1[O] [TT, TOAC-TOAC] | factor of two | 1.60 s | 11.7 | 24.6 | 2.07 s | 7.3 | 9.33 mM | 12 | 25 | 25 |  |  |  | 
2 | TOAC-Ser-TOAC [TST] |  |  | 10.6 | 25.3 | 3.90 s | 4.8 |  |  |  | 25 | 4.8 | 4.9 |  | 
3 | TOAC-TOAC-Ser [TTS] | factor of two |  | 18.5 |  | 2.59 s | 10.3 |  | 19 |  |  |  |  | 21 | 10.3 s^1/2
4 | acetyl-TOAC-TOAC [ATT] |  |  | 13.0 | 47.7 | 2.58 s | 7.2 |  | 13 | 48 | 48 |  | 9.0 |  | 

Reference: US12024498B2, “Radical compounds and methods of using thereof” (OHIO STATE INNOVATION FOUNDATION, priority 2017, dated 2024)
